The experiment deals with T1, TAP-tagged Ku protein of M. smegmatis (knock-in strain) (M. smegmatis) (UniProt A0R3S7).
T1 sequence: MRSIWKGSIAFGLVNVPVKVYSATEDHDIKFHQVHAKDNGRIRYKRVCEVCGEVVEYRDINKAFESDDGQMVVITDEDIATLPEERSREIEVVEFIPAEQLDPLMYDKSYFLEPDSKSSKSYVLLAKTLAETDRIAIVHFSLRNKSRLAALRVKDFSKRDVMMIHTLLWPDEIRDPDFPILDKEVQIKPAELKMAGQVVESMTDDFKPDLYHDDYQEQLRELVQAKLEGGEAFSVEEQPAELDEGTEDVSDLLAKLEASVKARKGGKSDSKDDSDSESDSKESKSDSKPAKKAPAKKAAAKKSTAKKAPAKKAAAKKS
Put plainly: affinity purification with mass spectrometry; tandem affinity purification (IgG-Sepharose, TEV cleavage, calmodulin resin) of C-terminally TAP-tagged Ku from M. smegmatis crude cytoplasmic extract, 4°C, 10 mM Tris-HCl pH 7.9, 0.15 M NaCl; SDS-PAGE, silver staining, bands identified by LC-MS/MS; repeated independently.

No constants are given. Whether binding was seen depends on the method and setting. Binding seen in cells or lysates may run through a third protein. A yes stands for co-enrichment or nearness to the bait. Other partners may have been found. Tags and fused reporters may be left off the sequences shown.

B1: NAD-dependent deacetylase (MSMEG_5175), MsmSir2, endogenous in M. smegmatis (enzyme, UniProt A0R2N3 1-240)
chain: MQVTVLSGAGISAESGVPTFRDAETGLWAQVDPYEISSTDGWQRNPEKVWAWYLWRHYMMARVAPNEAHRTVAAWEDHLDVRVVTQNIDDLHERAGSTNVYHLHGSLFEFRCDACGSAFEGNLPEMPEPVETIDPPVCPCSGLIRPSVVWFGEPLPDAAWNRSVLAVSSADVVIVVGTSSIVYPAAGLPEAALAAGKPVIEVNPERTPLSDSATVSLRETASEALPTLLQRLPELLNRSA
As to B1, the binding entry was “binds”.

The values are drawn from paper PMC3102665, “A Sir2-Like Protein Participates in Mycobacterial NHEJ” (PLoS ONE, 2011).
